From publication PMC2877795, “Laminin chain assembly is regulated by specific coiled-coil interactions” (Journal of Structural Biology, 2010)
No constants are given. Whether binding was seen depends on the method and setting.

Columns and labels:
[1] = biological target: T1, β1γ2 complex of the recombinant mouse laminin coiled-coil fragments (mouse) (UniProt P02469+Q61092); assay: native gel or EMSA; mixtures of one α, one β and one γ chain fragment; 10% non-denaturing PAGE (acid gels for basic complexes); mixtures reduced, heated to 70 °C for 5 min and cooled; run overnight at 50 V, room temperature, no cooling; Coomassie; bands confirmed by in-gel trypsin digestion and mass spectrometry; both purified
T1 sequence 1: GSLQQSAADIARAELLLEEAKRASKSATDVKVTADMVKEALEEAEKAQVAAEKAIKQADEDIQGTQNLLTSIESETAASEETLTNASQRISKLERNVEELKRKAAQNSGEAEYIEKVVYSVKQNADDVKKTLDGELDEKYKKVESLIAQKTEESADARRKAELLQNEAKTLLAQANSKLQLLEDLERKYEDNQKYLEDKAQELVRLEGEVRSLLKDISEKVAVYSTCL
T1 sequence 2: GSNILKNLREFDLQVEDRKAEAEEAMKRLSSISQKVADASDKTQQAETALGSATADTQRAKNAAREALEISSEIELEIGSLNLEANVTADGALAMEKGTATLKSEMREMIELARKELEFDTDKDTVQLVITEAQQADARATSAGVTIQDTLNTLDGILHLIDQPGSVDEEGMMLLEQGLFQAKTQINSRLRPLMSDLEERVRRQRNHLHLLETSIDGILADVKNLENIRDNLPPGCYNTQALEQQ

[2] = biological target: T2, β2γ2 complex of the recombinant mouse laminin coiled-coil fragments (mouse) (UniProt Q61292+Q61092); assay: as above
T2 sequence 1: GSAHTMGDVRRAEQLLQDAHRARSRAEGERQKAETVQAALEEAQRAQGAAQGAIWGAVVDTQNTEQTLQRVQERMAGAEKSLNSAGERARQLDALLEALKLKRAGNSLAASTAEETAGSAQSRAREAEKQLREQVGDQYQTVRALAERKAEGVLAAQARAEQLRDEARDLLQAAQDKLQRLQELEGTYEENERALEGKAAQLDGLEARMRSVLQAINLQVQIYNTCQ
T2 sequence 2: T1 sequence 2

[3] = biological target: T3, β2γ3 complex of the recombinant mouse laminin coiled-coil fragments (mouse) (UniProt Q61292+Q9R0B6); assay: as above
T3 sequence 1: T2 sequence 1
T3 sequence 2: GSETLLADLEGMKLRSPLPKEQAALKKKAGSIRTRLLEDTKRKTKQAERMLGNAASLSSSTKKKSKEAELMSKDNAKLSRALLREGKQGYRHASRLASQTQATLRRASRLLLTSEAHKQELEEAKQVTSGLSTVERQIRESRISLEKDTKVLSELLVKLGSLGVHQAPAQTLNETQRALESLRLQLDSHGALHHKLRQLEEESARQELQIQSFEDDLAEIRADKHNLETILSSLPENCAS

[4] = biological target: T4, β3 + γ1 mixture of the recombinant mouse laminin coiled-coil fragments (mouse) (UniProt Q61087+P02468); assay: as above
T4 sequence 1: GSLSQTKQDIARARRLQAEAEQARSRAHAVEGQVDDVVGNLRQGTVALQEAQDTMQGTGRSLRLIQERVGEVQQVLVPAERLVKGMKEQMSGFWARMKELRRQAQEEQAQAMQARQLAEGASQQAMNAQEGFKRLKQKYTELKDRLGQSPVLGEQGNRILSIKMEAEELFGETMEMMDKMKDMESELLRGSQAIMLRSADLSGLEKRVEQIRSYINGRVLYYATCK
T4 sequence 2: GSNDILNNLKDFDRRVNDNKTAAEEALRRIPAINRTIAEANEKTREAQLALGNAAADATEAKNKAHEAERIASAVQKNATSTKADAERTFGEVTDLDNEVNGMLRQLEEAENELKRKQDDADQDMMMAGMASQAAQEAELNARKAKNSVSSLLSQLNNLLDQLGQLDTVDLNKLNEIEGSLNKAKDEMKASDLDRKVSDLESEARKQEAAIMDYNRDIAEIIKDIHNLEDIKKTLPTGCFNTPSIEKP

[5] = biological target: T5, β3 + γ3 mixture of the recombinant mouse laminin coiled-coil fragments (mouse) (UniProt Q61087+Q9R0B6); assay: as above
T5 sequence 1: T4 sequence 1
T5 sequence 2: T3 sequence 2

[6] = biological target: T6, β3γ2 complex of the recombinant mouse laminin coiled-coil fragments (mouse) (UniProt Q61087+Q61092); assay: as above
T6 sequence 1: T4 sequence 1
T6 sequence 2: T1 sequence 2

[7] = biological target: T7, β1γ3 complex of the recombinant mouse laminin coiled-coil fragments (mouse) (UniProt P02469+Q9R0B6); assay: as above
T7 sequence 1: T1 sequence 1
T7 sequence 2: T3 sequence 2

[8] = biological target: T8, recombinant mouse laminin β3 chain C-terminal coiled-coil fragment (945–1168) (mouse) (UniProt Q61087); assay: native gel or EMSA; mixtures of one β and one γ chain fragment; 10% non-denaturing PAGE (acid gels for basic complexes); mixtures reduced, heated to 70 °C for 5 min and cooled; run overnight at 50 V; Coomassie; bands confirmed by in-gel trypsin digestion and mass spectrometry; both purified
T8 sequence: T4 sequence 1

Measured: binding

B1: recombinant mouse laminin α2 chain C-terminal coiled-coil fragment (1924–2145) (domain or fragment)
chain: GSYSNIKDYIDEAEKVAREAKELAQGATKLATSPQGLLKEDAKGSLQKSFRILNEAKKLANDVKGNHNDLNDLKTRLETADLRNSGLLGALNDTMDKLSAITNDTAAKLQAVKEKAREANDTAKAVLAQVKDLHQNLDGLKQNYNKLADSVAKTNAVVKDPSKNKIIADAGTSVRNLEQEADRLIDKLKPIKELEDNLKKNISEIKELINQARKQANSIKVSVS
notes: two residues (GlySer) left from the protease recognition site after thrombin cleavage; laminin α2 chain, mouse, C-terminal coiled-coil fragment, residues 1924-2145 of the native chain (222 residues); source: E. coli JM109(DE3), purified (Ni2+-Sepharose, denaturing, 8 M urea), 6xHis tag removed by thrombin; not shown: 6xHis, N-terminal, cleaved; pPEP-T leader (short C-terminal fragment of the …)
not listed: [7] | [8]
no binding: all other assays above

B2: recombinant mouse laminin α5 chain C-terminal coiled-coil fragment (2525–2748) (domain or fragment)
chain: GSNAYSSILQAVQAAEDAAGQALRQASRTWEMVVQRGLAAGARQLLANSSALEETILGHQGRLGLAQGRLQAAGIQLHNVWARKNQLAAQIQEAQAMLAMDTSETSEKIAHAKAVAAEALSTATHVQSQLQGMQKNVERWQSQLGGLQGQDLSQVERDASSSVSTLEKTLPQLLAKLSRLENRGVHNASLALSANIGRVRKLIAQARSAASKVKVSMKFNGRSGVR
notes: two residues (GlySer) left from the protease recognition site after thrombin cleavage; laminin α5 chain, mouse, C-terminal coiled-coil fragment, residues 2525-2748 of the native chain (224 residues); source: E. coli JM109(DE3), purified (Ni2+-Sepharose, denaturing, 8 M urea), 6xHis tag removed by thrombin; not shown: 6xHis, N-terminal, cleaved
not listed: [3] | [8]
no binding: all other assays above

B3: recombinant mouse laminin α1 chain C-terminal coiled-coil fragment (1911–2125) (domain or fragment)
chain: GSHVHSNIQTLTEEAEMLAADAHKTANKTDLISESLASRGKAVLQRSSRFLKESVSTRRKQQGITMKLDELKNLTSQFQESMDNIMKQANDSLAMLRESPGGMREKGRKARELAAAANESAVKTLEDVLALSLRVFNTSEDLSRVNATVQETNDLLHNSTMTTLLAGRKMKDMEMQANLLLDRLKPLKTLEENLSRNLSEIKLLISRARKQVASIKV
notes: two residues (GlySer) left from the protease recognition site after thrombin cleavage; laminin α1 chain, mouse, C-terminal coiled-coil fragment, residues 1911-2125 of the native chain (215 residues); source: E. coli JM109(DE3), purified (Ni2+-Sepharose, denaturing, 8 M urea), 6xHis tag removed by thrombin; not shown: 6xHis, N-terminal, cleaved; pPEP-T leader (short C-terminal fragment of the …)
no binding: [2] | [3] | [5] | [6]

B4: recombinant mouse laminin γ3 chain C-terminal coiled-coil fragment (1344–1581) (domain or fragment, UniProt Q9R0B6 1344-1581)
chain: T3 sequence 2
no binding: [8]

B5: recombinant mouse laminin α4 chain C-terminal coiled-coil fragment (616–842) (domain or fragment)
chain: GSASNVYENIANYVSEANETAELALNITDRIYDAVSGIDTQIIYHKDESDNLLNQARELQAKADSSNDEAVADTSRRVGGALWRKGALRDRLNDAVKQLQAAERGDAHQRLGQSKLFIEEANKTTAAVQQVTTPMANNLSNWSQNLQTFDSSAYNTAVDSARDAVRNLTEVVPQLLDQLRTVEQKRPASNISASIQRIRELIAQTRSVASKIQVSMMFDGQSAVEVHPK
notes: two residues (GlySer) left from the protease recognition site after thrombin cleavage; laminin α4 chain, mouse, C-terminal coiled-coil fragment, residues 616-842 of the native chain (227 residues); source: E. coli JM109(DE3), purified (Ni2+-Sepharose, denaturing, 8 M urea), 6xHis tag removed by thrombin; not shown: 6xHis, N-terminal, cleaved; pPEP-T leader (short C-terminal fragment of the …)
no binding: [1] | [7] | [4] | [5] | [6]

B6: recombinant mouse laminin γ1 chain C-terminal coiled-coil fragment (1362–1607) (domain or fragment)
chain: T4 sequence 2
notes: two residues (GlySer) left from the protease recognition site after thrombin cleavage; laminin γ1 chain, mouse, C-terminal coiled-coil fragment, residues 1362-1607 of the native chain (246 residues); source: E. coli JM109(DE3), purified (Ni2+-Sepharose, denaturing, 8 M urea), 6xHis tag removed by thrombin; not shown: 6xHis, N-terminal, cleaved; pPEP-T leader (short C-terminal fragment of the …)
no binding: [8]

B7: recombinant mouse laminin α3 chain C-terminal coiled-coil fragment (2176–2397) (domain or fragment)
chain: GSYENILNAIRAAEDAASKATSASKSAFQTVIKEDLPKRAKTLSSDSEELLNEAKMTQKRLQQVSPALNSLQQTLKTVSVQKDLLDANLTVARDDLHGIQRGDIDSVVIGAKSMVREANGITSEVLDGLNPIQTDLGRIKDSYESARREDFSKALVDANNSVKKLTRKLPDLFIKIESINQQLLPLGNISDNVDRIRELIQQARDAANKVAIPMRFNGKSGVEV
notes: two residues (GlySer) left from the protease recognition site after thrombin cleavage; laminin α3 chain, mouse, C-terminal coiled-coil fragment, residues 2176-2397 of the native chain (222 residues); the printed numbers fit the long (α3B) form; source: E. coli JM109(DE3), purified (Ni2+-Sepharose, denaturing, 8 M urea), 6xHis tag removed by thrombin; not shown: 6xHis, N-terminal, cleaved; pPEP-T …
no binding: [7] | [2] | [3] | [4] | [5]
